Test results as given in PubChem BioAssay AID651640 (Broad Institute, 2012).
Values joined by “and” are separate entries in the source; they are usually repeats but may differ in a detail not shown here. Equal entries are not always repeated. Among all 350,000 compounds or so, about 6,000 (1.7%) were called active. Inconclusive means that the source gave no clear call. Such entries were picked first, then a sample of the others. No stated cut-off is given here; in the data, active means CPE inhibition above about 20% (passing the limit was not always enough); inconclusive means no clear call, values can overlap the other calls; tested in BHK-21 cells.

Experiment: protection of cells from dengue 2 killing – plate reader, single concentration, primary screen (AID 651640);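 further: 0% = median of neutral control wells and 100% = median of positive control wells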
Settings: DENV2-infected cells, cytopathic effect rescue, at 9.99 µM, stronger effect = higher value

Row | Structure (SMILES) | CPE inhibition
1 | O=C(COC(=O)c1ccc2c(c1)OCO2)NC1CCCCC1 | active: 21.1%
2 | CCOC(=O)CSc1nc2c(c(=O)n1-c1ccc(OCC)cc1)SCC2 | inconclusive: 20.7%
3 | CCC1=NN2C(=N)/C(=C\c3cccn3-c3ccc(OC)cc3)C(=O)N=C2S1 | inconclusive: 24.6%
4 | COc1ccc2c3c(n(C)c2c1)[C@@H](CO)NCC31CCN(Cc2ccccc2Cl)CC1 | inactive: 1.03%
5 | O=C(NC1CCN(S(=O)(=O)c2ccc(F)cc2)CC1)C1CCCCC1 | inconclusive: 28.6%
6 | CN(Cc1cccc2ncccc12)C(=O)CC1C(=O)NCCN1Cc1ccc(F)cc1 (stereo not given) | inactive: 2.99%
7 | CO[C@H]1CN(C)C(=O)c2cc(NC(=O)Nc3cccc(Cl)c3)ccc2OC[C@H](C)N(C)C[C@@H]1C | inconclusive: 36.8%
8 | OC[C@@H]1CN(Cc2cccc(C(F)(F)F)c2)C[C@H](n2cnc3c(NCc4ccco4)ncnc32)O1 | inconclusive: 59.6%
9 | C[C@@H]1CN([C@H](C)CO)C(=O)c2cc(NC(=O)CCC(F)(F)F)ccc2O[C@H]1CN(C)Cc1ccc(C(=O)Nc2ccccc2N)cc1 | active: 20.3%
10 | CCC(=O)N(C)C[C@@H]1Oc2ncc(C#C[C@H](C)O)cc2C(=O)N([C@H](C)CO)C[C@@H]1C | inconclusive: 7.96%
11 | CC1(C(=O)NCc2ccccc2Br)CCN1Cc1csc2ccccc12 (stereo not given) | inconclusive: 45.5%
12 | OCCC1CN(Cc2c(O)ccc3ccccc23)CCN1CCc1ccccc1 (stereo not given) | inconclusive: 26.7%
13 | CCN1CCN(Cc2ccc(NC(=O)c3cc(NC(=O)c4cc(-c5ccc(OC)cc5)n[nH]4)cc(OC)c3)cc2C(F)(F)F)CC1 | inconclusive: 25.8%
14 | C[C@@H]1CN([C@@H](C)CO)C(=O)c2cc(-c3cccc(F)c3)cnc2O[C@@H]1CN(C)S(=O)(=O)c1cccc(F)c1 | inactive: 1.61%
15 | C[C@H](CO)N1C[C@H](C)[C@@H](CN(C)Cc2ccc(C(=O)O)cc2)Oc2c(NC(=O)C3CC3)cccc2C1=O | inconclusive: 55.7% and inconclusive: 30.2%
16 | COc1ccc(/C=C/C(=O)NNC(=O)c2cc(C)oc2C)cc1 | inactive: 7.05%
17 | C[C@H](CO)N1C[C@H](C)[C@H](CN(C)C(=O)C2CCC2)Oc2cc(-c3cccnc3)ccc2S1(=O)=O | inactive: -3.16%
18 | C[C@@H]1CN([C@@H](C)CO)C(=O)c2cccc(NC(=O)c3nc4ccccc4s3)c2O[C@@H]1CN(C)C(=O)Nc1ccc(F)cc1 | inactive: -7.88%
19 | CC(C)(C)c1ccccc1NC(=O)C1=COCCO1 | inconclusive: 23.8%
20 | COc1ccc(CN2C(=O)C(CC(=O)NC3CC3)CC(C(=O)N(C)C)=C2C)cc1 (stereo not given) | inconclusive: 69.5%

Taken from above.
`COc1ccc(CN2C(=O)C(CC(=O)NC3CC3)CC(C(=O)N(C)C)=C2C)cc1` (stereo not given) | CPE inhibition: inconclusive: 69.5%
`O=C(COC(=O)c1ccc2c(c1)OCO2)NC1CCCCC1` | CPE inhibition: active: 21.1%
